## Results of single-concentration screens

Each number is a percent effect as filed. The record does not define 0% and 100%; most values in the screen are far below 50% and negative numbers occur (in some assays of this library far below -100). This is an unselected part of the compounds tested. Two or more numbers in one place are separate tests of the same structure; such repeats can differ widely.

Mtb cholesterol medium: 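Whole-cell growth test on Mycobacterium tuberculosis, read after 4 days in a medium based on cholesterol and the lipid DPPC; the read-out is not stated. Concentration: 50 µM. The record gives no direction; compounds that gave an IC50 in retests scored well above the rest, so higher reads as more growth inhibition. Size under these conditions: about 69,000 compounds, about 370 of them at 50% or above in at least one test.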
Mtb glucose medium: 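Growth of Mycobacterium tuberculosis over 3 days (7H9 medium with glucose and tyloxapol); the read-out is not stated. Compounds at 50 µM. Direction is inferred from retests: higher values go with more growth inhibition. Size under these conditions: about 69,000 compounds, about 760 of them at 50% or above in at least one test.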

SMILES | Mtb cholesterol medium | Mtb glucose medium
CO[C@H]1CN(Cc2ccc(F)cc2)CC[C@@]12CCCO2 | -17.13 | -8.18
[H][C@@]12CN(Cc3cnn(C)c3)C[C@@]1([H])N(Cc1ccncc1)C(=O)CO2 | -21.3 | -16.31
COc1cc(NC(=O)NCC2CCCO2)cc(OC)c1OC (configuration not stated) | 15.31 | 14.99
COCC1CN(C(=O)COc2ccccc2)Cc2ncn(C)c21.O=C(O)C(F)(F)F (configuration not stated) | 4.77 | -1.966 & -16.88
CCN(Cc1ccc(C(C)C)cc1)C(=O)c1csc(CN(C)C)n1 | -3.135 | -18.78
O=C(Cn1ccc2c(Cl)cccc21)N1CCC2(CC1)OCCO2 | -11.92 | 9.917
CC(C)c1noc(CS(=O)(=O)CC(=O)NCc2cccs2)n1 | -8.732 & -2.186 | -23.78
COc1cccc(Cn2ncc(N(C)CCc3ccccc3)cc2=O)c1 | 3.051 | 14.4
O=C(CSc1nnc[nH]1)NCc1sccc1Br | -26.23 | 0.06834
COc1ccc2cc(CNCc3c(C)nn(C)c3N(C)C)ccc2c1 | -14.23 | 16.75
Cc1ncc(COc2ccc(N(C)S(C)(=O)=O)cc2)s1 | 20.95 | 17.28
Cc1ccc(S(=O)(=O)NC2CC2)cc1C | -8.185 | -0.7941 & 27.55
Cc1nc(CN2CCOC3(CCCC3)C2)oc1C | 4.248 | 17.29
Cc1csc(C2CCCCN2C(=O)c2cc(C)n(C)n2)n1 (configuration not stated) | -9.287 | 19.52
Cc1cccc(C2CCCN(C(=O)CN3CCC(C(N)=O)CC3)C2)c1 (configuration not stated) | 11.73 | -4.62
COc1cc(CNC(=O)Nc2nnc(C3CC3)s2)ccc1O | 12.83 | 6.546
CC(=O)N1CCC(c2nccnc2Nc2cnccn2)CC1 | 9.241 | 20.3
CN(C(=O)c1ccco1)c1nc2c(s1)CCCC2 | 0.4752 | 16.19 & 21.44
Cc1noc(C2CCCN(C(=O)c3ccc(Br)cc3F)C2)n1 (configuration not stated) | 27.54 | 39.9
O=C(c1ccncc1)N1CCc2c(COCC3CC3)cncc2C1 | -16.12 | 10.81
CCN(Cc1ccc(-c2ccccn2)cc1)C1CCS(=O)(=O)C1 (configuration not stated) | 21.96 | 25.44
Cc1cccc(C)c1-c1cc(NCCO)nc2[nH]ccc12 | -3.138 | 0.1217
CN1CC2(CCN(C(=O)c3[nH]cnc3-c3ccccc3)C2)OC1=O (configuration not stated) | -9.659 | 8.577
CCn1c(N)nc2cc(C(=O)N3CCCOCC3)cnc21 | -5.219 | 7.292
COc1ccccc1CN(Cc1cccnc1)CC1CCCO1.O=C(O)CC(O)(CC(=O)O)C(=O)O (configuration not stated) | -4.231 | -11.64
O=S1(=O)CCCN1Cc1coc(-c2ccc(C(F)(F)F)cc2)n1 | -26.14 | 0.6316
CC1CN(c2ncccc2C(=O)Nc2cccc3c2CCCC3)CCN1 (configuration not stated) | 9.079 | 8.457
Cc1csc(CN(CC2CCCO2)C(=O)c2ccc(C)nc2C)n1 (configuration not stated) | -14.98 | 12.56
Cc1nc(C)n(CCNC2CCN(c3ncnc4c(C)csc34)CC2)n1 | -0.4571 & 1.9 | 7.832
Cc1cc(N(C)CC2COc3ccccc3O2)nc(C)n1 (configuration not stated) | 15.22 | 2.958 & 17.31
Clc1ccc(CN2CCC(C3CCN(Cc4cccnc4)CC3)C2)cc1 (configuration not stated) | 0.6395 | 35.77
CNC(=O)[C@@H]1C[C@@H](N)CN1Cc1cc2cc(C)cc(C)c2[nH]c1=O | -5.434 & -25.24 | -25.6
[H][C@]12C[C@H](NC(=O)c3cscn3)[C@@]1([H])CN(S(=O)(=O)c1ccc(C)cc1)C2 | -7.682 | 12.46
COc1cccc(OCC2CCCN(C(=O)c3cnc(C)nc3O)C2)c1 (configuration not stated) | 26.49 | 18.71
CN1CCCCc2c1nc1c(c2N)CCCC1 | 6.895 | 11.69
Cc1cccc(C(=O)Nc2ccc(OC3CCOCC3)c(C)c2)n1 | -4.496 & 10.66 | 19.28 & 13.43
Cc1nc(C)n(CC2CCCCN2CCCC#N)n1 (configuration not stated) | -3.063 & 1.342 | -55.35
COCCCN1CC2(CCN(Cc3ncc[nH]3)CC2)CC1=O | 0.3851 | 27.06
Cc1nnc(C(C)N2CCCN(Cc3ccc(F)cc3)CC2)o1 (configuration not stated) | 0.03804 | 9.585 & 1.861
Cc1cnn(CC2CN(Cc3cccc(C(=O)N(C)C)c3)CCO2)c1 (configuration not stated) | -23.76 | -8.245
C[C@@H]1CN(c2nc3c(cc2C(N)=O)CCC3)C[C@@]1(O)C1CCC1 | 8.959 | 10.42 & 3.227
Cc1cc2ccccc2n1CCC(=O)N1CCCC(O)(CN(C)C)CC1 (configuration not stated) | -9.821 | -0.8454 & -10.85
c1cncc(CN2CCC(c3csc4nccn34)CC2)c1 | -3.356 & -6.88 | -0.1244
COc1ccc(Br)cc1Cn1nc(C(N)=O)ccc1=O | -12.08 | 22.03
CC(C)NC(=O)C1CN(C(=O)c2ccco2)CC12CCOCC2 (configuration not stated) | -22.49 | 0.5406
COc1ccc(C(CC(=O)NCc2n[nH]c(N)n2)c2ccccc2)cc1 (configuration not stated) | 0.8353 | 21.58
Cc1nn(C(C)C)c(C)c1S(=O)(=O)Nc1ccc(C(=O)O)cc1 | -10.17 | 0.303
Cc1ccc(C(NC(=O)Cc2nc3ncccn3n2)C2CC2)cc1 (configuration not stated) | -0.09501 | 1.318
Cn1nc(CNC(=O)c2ccc(Cl)cc2)c2c1CCOC2 | 1.864 | 33.57
O=C(CSc1nncs1)N1CCN(Cc2ccc(Cl)cc2)CC1 | 5.646 | -6.065 & -3.185
CN1CCN(Cc2cn3c(n2)CN(C(=O)c2cccn2C)CC3)CC1.O=C(O)C(F)(F)F.O=C(O)C(F)(F)F | 11.13 | 12.38 & -5.162
CC(=O)c1cc(C(=O)N2CCC(CC(C)C)C2)c(=O)[nH]c1C (configuration not stated) | 1.014 | 3.857
[H][C@@]12C[C@H](c3nc(C)no3)O[C@@]1([H])CCN(C(=O)C1CCOCC1)C2 | -6.807 | 19
CCOc1ncnc2c1CCN(S(=O)(=O)CC)CC2 | -19.33 | -12.39 & -37.99
COCCN1CCN(CCCS(=O)(=O)N(C)C)CC1C (configuration not stated) | 0.4341 | -5.292 & -13.43
CN(C)C(=O)c1cncnc1-c1ccc(CNC(=O)C2CCCO2)cc1 (configuration not stated) | 20.17 & -34.24 | -31.27
CC(C)CN1CC(O)CN(S(=O)(=O)c2ccc(F)cc2)CC1=O (configuration not stated) | -10.78 | 19.35
Cc1cc(N2CCOC(c3ccc(N(C)C)cn3)C2)nc(N)n1 (configuration not stated) | 10.44 & -10.28 | -14.96
CC(C)CNC(=O)c1cn(-c2ccccn2)c(=O)c2ccccc12 | -12.87 | 16.16 & -0.1188

For reference, 5 entries once more:

COc1cccc(Cn2ncc(N(C)CCc3ccccc3)cc2=O)c1 gave Mtb cholesterol medium: 3.051%; Mtb glucose medium: 14.4%.
CCn1c(N)nc2cc(C(=O)N3CCCOCC3)cnc21 gave Mtb cholesterol medium: -5.219%; Mtb glucose medium: 7.292%.
COc1cc(CNC(=O)Nc2nnc(C3CC3)s2)ccc1O gave Mtb cholesterol medium: 12.83%; Mtb glucose medium: 6.546%.
CO[C@H]1CN(Cc2ccc(F)cc2)CC[C@@]12CCCO2 gave Mtb cholesterol medium: -17.13%; Mtb glucose medium: -8.18%.
[H][C@@]12CN(Cc3cnn(C)c3)C[C@@]1([H])N(Cc1ccncc1)C(=O)CO2 gave Mtb cholesterol medium: -21.3%; Mtb glucose medium: -16.31%.

Data taken from ChEMBL document CHEMBL3988442, “University of Dundee, Small-Polar-MMV Screening Library” (2021).